Experimental data published in PubChem BioAssay AID1439 (NMMLSC, 2008).
The campaign covered roughly 220,000 compounds. About 770 (0.35%) were called active. The inconclusive results got no clear call from the source; some entries with a clear call stand among them for comparison. No stated cut-off is given here; in the data, active means binding response below about 49% or above about 150%; inconclusive means no clear call, values can overlap the other calls; inactive means in between.

Chains of the proteins cited; added tags and fusions are not shown.
UniProt P09471, whole entry, looked up: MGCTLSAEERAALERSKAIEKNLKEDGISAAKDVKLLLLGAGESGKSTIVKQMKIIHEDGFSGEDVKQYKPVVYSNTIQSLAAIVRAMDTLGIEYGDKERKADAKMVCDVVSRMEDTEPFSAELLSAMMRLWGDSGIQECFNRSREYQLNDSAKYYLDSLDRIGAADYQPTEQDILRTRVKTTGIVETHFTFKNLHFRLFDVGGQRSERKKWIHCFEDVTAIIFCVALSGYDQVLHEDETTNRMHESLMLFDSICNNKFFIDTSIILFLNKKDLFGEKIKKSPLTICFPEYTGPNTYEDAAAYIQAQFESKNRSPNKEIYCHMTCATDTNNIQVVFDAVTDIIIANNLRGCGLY

target: Guanine nucleotide-binding protein G(o) subunit alpha (Homo sapiens) (UniProt P09471); assay: compounds changing RGS7 association with Galphao – biochemical, multiplexed bead flow cytometry, primary screen (AID 1439); conditions: at 10 µM, actives lie on both sides;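 further: fluorescent Galphao held in activated GDP-AlF4 state binding bead-coupled RGS7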

Q: CCN(CC)CCN=Cc1c(O)n(Cc2ccco2)c(=O)[nH]c1=O was tested. Which binding response (% of control) did it give?
A: inconclusive: 13.2%

Q: With CC(=NCCc1ccccc1)c1c(O)[nH]c(=O)[nH]c1=O as the molecule, how does the binding response (% of control) read?
A: inconclusive: 105%

Q: For C=CCN1CC[C@@]2(C)c3cc(O)ccc3CC1[C@@H]2C, which binding response (% of control) is on record?
A: inconclusive: 115%

Q: For CN1CCN(/N=C/c2c[nH]c3ccccc23)CC1, which binding response (% of control) is on record?
A: inconclusive: 420%

Q: With O=C(N/N=C/c1c(O)n(CCc2ccccc2)c(=O)[nH]c1=O)c1ccccc1O as the molecule, how does the binding response (% of control) read?
A: inconclusive: 105%

Q: CCCC[N+]1(C)C2CC(OC(=O)C(CO)c3ccccc3)CC1C1OC12 (stereo not given) was tested. Which binding response (% of control) did it give?
A: inconclusive: 106%

Q: With COP(=O)(OC)C1(O)C(=O)Nc2ccc(Br)cc21 (stereo not given) as the molecule, how does the binding response (% of control) read?
A: inactive: 97.8%

Q: How did the binding response (% of control) turn out when O=C1NC(=O)C2(Cc3ccccc3N3CCCC32)C(=O)N1c1ccccc1 (stereo not given) was run?
A: inactive: 111%

Q: How did the binding response (% of control) turn out when C/C=C/CC1(CC)C(=O)NC(=S)NC1=O was run?
A: inconclusive: 109%

Q: O=c1c2ccccc2nc(-c2ccco2)n1-c1ccccc1 was tested. Which binding response (% of control) did it give?
A: inactive: 109%

Q: For CN(C)C(=O)Oc1c(Cl)cc(Cl)c2ccccc12, which binding response (% of control) is on record?
A: inactive: 99%

Q: Which binding response (% of control) does the source give for CCNc1cc(N2CCN(C)CC2)ccc1[N+](=O)[O-] here?
A: inconclusive: 93.1%

Q: For COc1ccc(-n2c(O)c(C=NCCN(C)C)c(=O)[nH]c2=O)cc1, which binding response (% of control) is on record?
A: inconclusive: 92.9%

Q: COc1ccc(CCn2c(O)c(/C=N/NC(=O)c3ccncc3)c(=O)[nH]c2=O)cc1OC was tested. Which binding response (% of control) did it give?
A: inactive: 96.2%

Q: For Cc1cc(OC(=O)N(C)C)nc2c1c(C)nn2C, which binding response (% of control) is on record?
A: inconclusive: 7.85%

Q: How did the binding response (% of control) turn out when C/C=C(\C)C(=O)OC1C(C)=C2C(C1OC(=O)CCCCC)C(C)(OC(C)=O)CC(OC(=O)CCC)C1(O)C2OC(=O)C1(C)O (stereo not given) was run?
A: inconclusive: 71.2%

Q: CN(C)CCNC(=O)c1cccn(Cc2cccc(C(F)(F)F)c2)c1=O was tested. Which binding response (% of control) did it give?
A: inconclusive: 119%

Q: For COc1ccccc1N1C(=O)NC(=O)/C(=C\c2cnn(-c3ccccc3)c2)C1=O, which binding response (% of control) is on record?
A: inconclusive: 118%

Q: O=c1oc2ccccc2c(O)c1C(c1ccccn1)c1c(O)c2ccccc2oc1=O was tested. Which binding response (% of control) did it give?
A: inconclusive: 116%

Q: With O=C(O)CN1C(=O)CN=C(c2ccccn2)c2cc(Cl)ccc21 as the molecule, how does the binding response (% of control) read?
A: inconclusive: 88%

Q: With O=c1[nH]c(=O)n(-c2cccc3ccccc23)c(O)c1/C=N/N1CCCCC1 as the molecule, how does the binding response (% of control) read?
A: inconclusive: 195%

Q: For O=C(c1ccccc1)c1ccc(N=Nc2c(O)[nH]c(=O)[nH]c2=O)cc1, which binding response (% of control) is on record?
A: inconclusive: 106%

Q: With Cc1cc(Cl)ccc1C(=O)C1CCCN(C2CCSCC2)C1 (stereo not given) as the molecule, how does the binding response (% of control) read?
A: inactive: 93.4%

Q: Which binding response (% of control) does the source give for COc1cc2c(cc1O)CC1c3c(cc(O)c(OC)c3-2)CCN1C (stereo not given) here?
A: inconclusive: 50.3%

Q: How did the binding response (% of control) turn out when CC(=NCCCN1CCOCC1)c1c(O)[nH]c(=O)[nH]c1=O was run?
A: inactive: 102%
